Data taken from ChEMBL document CHEMBL3988442, “University of Dundee, Small-Polar-MMV Screening Library” (2021).

Values are the deposited “Percent Effect”, in %. The controls that fix the scale are not given in the record; negative values are as filed. This is an unselected part of the compounds tested. A dash means the value is not listed here; it may have been measured.

A: 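Whole-cell assay for inhibitors of Mycobacterium tuberculosis growth, labelled Cornell in the record; the read-out is not stated. The concentration is filed as 10 mM, unlikely as a test dose, so the dose is not known. Higher means stronger inhibition (inferred from two other growth screens of the library). Of about 53,000 compounds tested this way, about 900 (1.7%) reached 50% or more in at least one test.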
B: 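Assay on Mycobacterium tuberculosis, filed only as a heat shock assay from Cornell; the read-out is not stated. The concentration is filed as 10 mM, unlikely as a test dose, so the dose is not known. Direction is inferred from retests: higher values go with stronger inhibition. About 69,000 compounds were tested under these conditions; 1.4% (about 930) showed 50% or more at least once.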

compound,A,B
Cc1ncsc1CCC(=O)NCc1csc(N2CCCC2)n1,-,-41.96%
Cc1nc(CC(=O)N2CCCN(c3ccc(F)cc3)CC2)cs1,13.79%,12.34%
[H][C@@]12CCCCCN(C(=O)C3CC3)[C@@]1([H])[C@H](c1cccc(F)c1)CN2C,-1.319%,-4.472%
O=C(O)C(F)(F)F.O=C(O)C(F)(F)F.O=C(O)C(F)(F)F.c1ccc(N2CC3(CCN(Cc4cccnc4)C3)C2)nc1,36.33%,-1.371%
Cc1cnc(C(=O)N2CCCCC2c2[nH]ncc2S(C)(=O)=O)cn1 (stereo not given),-,-21.4%
Cc1c[nH]c(C2CCCN(Cc3cccc(C(=O)O)c3)C2)n1 (stereo not given),-12.25%,-6.702%
[H][C@@]12CCN(Cc3c(C)noc3C)C[C@]1(C(=O)NC)CCO2,-11.97%,6.07%
O=C1OCCC1N1CCN(c2cnccn2)CC1 (stereo not given),-6.858%,-17.95%
CCC(CO)N(Cc1ccccn1)C(=O)c1ccc(F)c(F)c1 (stereo not given),-7.675%,-17.24%
CN(Cc1nc(CC2CC2)no1)CC1Cc2ccccc2O1 (stereo not given),35.34%,17.6%
Cc1c(Cl)cccc1S(=O)(=O)NCc1cnc(N(C)C)n1C,-2.869%,-20.44%
CCC1(CC)CC(=O)N(CC(O)c2cccc(Br)c2)C1=O (stereo not given),-30.42%,-10.36%
Cn1ncc(C(=O)N2CCN(C(=O)c3ccco3)CC2)c1Cl,-,5.533%
CNS(=O)(=O)c1ccc(CNC(=O)c2cc(C)no2)cc1,-30.41%,27.92%
c1ccc(C2CCCCN2Cc2nc(-c3cnccn3)no2)nc1 (stereo not given),-,-8.587%
Cc1ncc(Cl)c(C(=O)N2CC(=O)N(C)c3ccccc32)n1,17.31%,5.4%
COc1ccc2c(ccn2CCC(=O)Nc2ccc(C(N)=O)cc2)c1,-1.365%,8.966%
[H][C@@]12CC(C)=CC[C@]1([H])CN(C(=O)c1ccc(-c3nc[nH]n3)cc1)C2,-29.84%,14.26%
Cc1ncncc1C(=O)N1CCOC(C(=O)NC2CCCC2)C1 (stereo not given),-44.04%,-11.18%
C=C(C)Cn1c(=O)nc(N)c2c(-c3ccc(OC)cc3)csc21,9.827%,-1.146%
Brc1ccc(CN2CCC(NCc3ncc[nH]3)CC2)cc1,-,11.09%
O=C(O)C(F)(F)F.O=C([C@H]1CCCO1)N1CCN(CCn2cccn2)c2ncccc2C1,3.444%,6.07%
Cc1cccc(NC(=O)c2ccc(OCc3nnnn3C)cc2)n1,-19.21%,2.659%
Cc1ccc(-c2cc(C(=O)O)sn2)cc1,15.41%,-10.61%
CN(C)c1ncnc2c1CCN(CC1CCOCC1)CC2.O=C(O)C(F)(F)F,27.58%,0.5445%
c1cnc(-c2nc(CN3CCCC3Cn3cncn3)cs2)nc1 (stereo not given),-,-16.33%
Cc1cc(CNC(=O)N2CCN(C(C)c3cccnc3)CC2)c(C)o1 (stereo not given),18.03%,6.845%
COc1cc2nc(C)n(CC(=O)NCCO)c(=O)c2cc1OC,-15.31%,1.786%
Cc1ccc(F)c(CNc2ccn(CCC(N)=O)n2)c1,-,-166.7%
COc1ccc(-c2cc3nc(CCNC(=O)C4CC4)nn3cn2)cc1,-8.274%,-23.37%
[H][C@]12CC[C@](O)(c3cccc(OC)c3)[C@@]1([H])CN(C(=O)c1c[nH]nc1C)C2,33.48%,7.842%
COc1ccc(CNC(=O)CNc2ccccc2OC)cc1,22.93%,23.52%
COCCn1ccnc1C1CCCN(C(=O)c2cccnc2SC)C1 (stereo not given),-28.75%,-1.836%
CN1CCN(C(=O)c2cc(C#N)cs2)c2ccccc2C1,-32.58%,-13.95%
CCOC1CCN(C(=O)c2csc(S(N)(=O)=O)c2)CC1,10.8%,6.637%
O=C(O)C(F)(F)F.O=C(O)C(F)(F)F.c1csc(CN2Cc3[nH]nc(COCC4CC4)c3C2)c1,37.81%,30.91%
Cc1cc(C)c2c(N3CCN(Cc4ncccc4C)CC3)ncnc2n1,-0.8865%,-21.52%
CN1CCN(C(=O)CCn2nnc3ccccc32)CC(C(N)=O)C1 (stereo not given),53.1%,-7.79%
CN(Cc1ccncc1)C1COC2(CCN(c3ncc(F)cn3)CC2)C1.O=C(O)C(F)(F)F.O=C(O)C(F)(F)F (stereo not given),30.29%,0.2723%
Cc1[nH]c2c(F)cccc2c1CC(=O)N1CCCC(N)CC1 (stereo not given),-4.835%,-8.064%
O=C(NCCNC(=O)C1CC1)c1sccc1Br,21.15%,2.08%
COC(=O)c1ccc2ccn(CC3CCCN(C)C3)c(=O)c2c1 (stereo not given),3.744%,-23.53%
O=C(O)C(F)(F)F.O=C(O)C(F)(F)F.[H][C@@]12CCN(C(=O)c3cnn(C)c3)[C@@]1([H])CCN2Cc1cccnc1,-5.378%,-1.797%
Fc1cnc(N2CCCn3c(nnc3Cn3ccnc3)C2)nc1.O=C(O)C(F)(F)F,2.855%,-15.98%
COCc1nccc(C2CCCN(Cc3ccc(C#N)cc3F)C2)n1 (stereo not given),24.4%,1.429%
COCC(=O)N(C)Cc1cccc(Cl)c1,-20.61%,-0.2753%
CC(c1ncc(C(C)(C)C)o1)N1CCN(c2ccncc2)CC1 (stereo not given),-1.37%,-3.413%
NC(=O)N1CCCN(C(=O)Nc2cc(-n3cccc3)ccc2F)CC1,11.22%,-8.494%
O=C(c1ccccc1F)N(CCCO)S(=O)(=O)c1cccs1,22.1%,-42.06%
Cc1csc(NC(=O)C(C)Oc2ccc3c(c2)OCO3)n1 (stereo not given),37.36%,10.1%
O=C(O)C(F)(F)F.O=S1(=O)NCC2(CCN(c3ncccn3)CC2)COc2ccccc21,-60.02%,-46.19%
O=C(O)C1(O)CCN(c2ccc3cccc(Cl)c3n2)CC1,40.62%,6.115%
COc1ccc(Br)cc1CC(=O)Nc1cc(C)n[nH]1,-5.467%,-20.09%
CCc1cnc(N2CCOC(CCOC)C2)nc1 (stereo not given),11.63%,23.72%
CC(Cn1cccn1)NC(=O)NCCCN1CCCCCC1=O (stereo not given),3.129%,9.776%
COc1cc(Cl)c(C)cc1NC(=O)CNc1ccn(CC(N)=O)n1,7.913%,-0.2228%
COc1cc(NCc2ccccc2-n2cncn2)nc(N)n1,28.41%,20.22%
[H][C@@]12CCCC[C@]1(O)CCN(Cc1ccc(OC)c(C(=O)O)c1)C2,-,-6.352%
CN(C)c1cc2c(nn1)CCN(C(=O)c1ccc(-n3cccn3)nc1)C2,-2.641%,-9.461%
Cn1c(CN2CCOCC2)nnc1C1CCN(C(=O)C2CCCC2)CC1,-,-6.416%
Cn1cnc2c1CCN(CC(=O)NC1CCCCNC1=O)C2 (stereo not given),15.78%,2.661%
[H][C@@]12CCN(C3CCCC3)C[C@@]1([H])[C@H](C(=O)NC1CC1)CCO2,22.43%,-20%
Nc1ccncc1-n1cc(CCO)cn1,-,-1.263%
O=C(O)c1cccn1-c1ccc2c(c1)OCCO2,28.73%,1.493%
CN(C)CCN1CCc2ncc(CN(C)Cc3ccco3)n2CC1,-23.9%,-9.457%
O=S(=O)(CCc1ccccc1)Cc1nc(C2CC2)no1,12.99%,59.77%
Cc1cccc(-c2noc(CN3CCc4c(ncn4C4CC4)C3)n2)c1,37.65%,17.61%
CCN(Cc1noc(C)n1)C(=O)C(c1cccc(C)c1)N(C)C (stereo not given),-,-38.08%
CCc1nc(CN2CCN(C(=O)C3(C#N)CCCC3)CC2)cs1,-,-20.02%

Repeated from the top, 4 entries:

{"compound": "Cc1ncsc1CCC(=O)NCc1csc(N2CCCC2)n1", "B": -41.96}
{"compound": "Cc1nc(CC(=O)N2CCCN(c3ccc(F)cc3)CC2)cs1", "A": 13.79, "B": 12.34}
{"compound": "[H][C@@]12CCCCCN(C(=O)C3CC3)[C@@]1([H])[C@H](c1cccc(F)c1)CN2C", "A": -1.319, "B": -4.472}
{"compound": "O=C(O)C(F)(F)F.O=C(O)C(F)(F)F.O=C(O)C(F)(F)F.c1ccc(N2CC3(CCN(Cc4cccnc4)C3)C2)nc1", "A": 36.33, "B": -1.371}